Paper PMC3051880
These are yes or no findings as the source states them, for the method shown. In cells and extracts the contact can be indirect. Some results given as binding are weak or reduced against the parent protein; the word gives no strength.

Chains of the proteins cited; added tags and fusions are not shown.
UniProt P38532: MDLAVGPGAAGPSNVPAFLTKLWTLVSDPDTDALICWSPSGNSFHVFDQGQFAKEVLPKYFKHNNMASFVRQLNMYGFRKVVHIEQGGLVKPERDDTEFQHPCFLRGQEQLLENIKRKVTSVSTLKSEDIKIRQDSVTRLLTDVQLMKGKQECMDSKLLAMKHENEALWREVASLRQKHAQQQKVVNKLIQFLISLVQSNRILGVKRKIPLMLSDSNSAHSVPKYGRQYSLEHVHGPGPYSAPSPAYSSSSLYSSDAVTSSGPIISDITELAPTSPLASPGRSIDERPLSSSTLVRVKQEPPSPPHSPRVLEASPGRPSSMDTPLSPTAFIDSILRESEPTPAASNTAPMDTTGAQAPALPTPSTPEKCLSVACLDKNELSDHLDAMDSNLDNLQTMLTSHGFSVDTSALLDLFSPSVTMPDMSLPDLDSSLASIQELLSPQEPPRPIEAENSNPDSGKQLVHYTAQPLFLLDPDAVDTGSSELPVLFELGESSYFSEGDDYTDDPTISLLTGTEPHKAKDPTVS
UniProt P11103: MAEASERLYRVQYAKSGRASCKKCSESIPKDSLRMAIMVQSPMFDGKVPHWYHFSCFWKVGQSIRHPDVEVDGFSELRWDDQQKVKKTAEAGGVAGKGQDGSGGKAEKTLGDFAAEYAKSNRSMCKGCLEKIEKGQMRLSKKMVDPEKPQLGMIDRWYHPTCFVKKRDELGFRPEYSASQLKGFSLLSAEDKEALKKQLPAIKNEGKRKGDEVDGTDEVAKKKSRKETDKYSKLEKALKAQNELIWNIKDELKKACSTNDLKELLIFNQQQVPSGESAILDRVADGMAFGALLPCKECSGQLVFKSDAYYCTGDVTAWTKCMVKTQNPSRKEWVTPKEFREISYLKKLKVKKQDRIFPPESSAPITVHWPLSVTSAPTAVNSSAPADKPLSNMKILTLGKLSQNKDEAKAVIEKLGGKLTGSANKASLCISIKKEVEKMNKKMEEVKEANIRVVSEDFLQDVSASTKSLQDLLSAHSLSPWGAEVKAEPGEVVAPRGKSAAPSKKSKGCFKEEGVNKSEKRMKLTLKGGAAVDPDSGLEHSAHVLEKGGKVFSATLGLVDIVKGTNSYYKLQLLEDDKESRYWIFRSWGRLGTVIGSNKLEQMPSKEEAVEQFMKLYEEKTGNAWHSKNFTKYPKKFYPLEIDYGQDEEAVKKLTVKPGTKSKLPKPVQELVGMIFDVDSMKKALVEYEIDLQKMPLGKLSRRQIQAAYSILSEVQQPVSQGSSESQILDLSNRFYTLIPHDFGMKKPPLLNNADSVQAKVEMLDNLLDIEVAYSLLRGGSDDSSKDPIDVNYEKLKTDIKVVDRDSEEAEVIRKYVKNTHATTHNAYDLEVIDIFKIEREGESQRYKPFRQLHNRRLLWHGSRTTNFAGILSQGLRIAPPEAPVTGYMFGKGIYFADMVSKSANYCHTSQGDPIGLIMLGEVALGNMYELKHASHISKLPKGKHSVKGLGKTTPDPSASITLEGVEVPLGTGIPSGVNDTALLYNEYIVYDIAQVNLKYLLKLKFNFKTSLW

Columns and labels:
[1] = molecular target: heat shock factor-1 (mouse (endogenous in mouse fibroblasts)) (UniProt P38532); assay: co-IP; nuclear extracts of wild-type mouse fibroblasts, pre-cleared with normal mouse IgG-AC; immunoprecipitated with HSF-1 antibody (Stressgen SPA-950) or anti-PARP antibody (Biomol SA-250) and protein A/G PLUS-agarose overnight at 4°C, washed three times in PBS, blotted for the other protein; cells resting or heat shocked (43°C 45 min, recovery 37°C 45 min), with or without DIQ (100 μM)
[2] = molecular target: Poly (ADP-ribose) polymerase-1 (mouse (endogenous in mouse fibroblasts)) (UniProt P11103); assay: as above

| Substance | binding [1] | binding [2] |
| --- | --- | --- |
| Poly (ADP-ribose) polymerase-1 (from UniProt P11103 1-1013) (enzyme) | binds |  |
| heat shock factor-1 (from UniProt P38532 1-525) |  | binds |
